Data published in PubChem BioAssay AID504842 (National Center for Advancing Translational Sciences (NCATS), 2011).
Among all 330,000 compounds or so, about 100 (0.03%) were called active. The inconclusive results got no clear call from the source; some entries with a clear call stand among them for comparison. Calls come from the whole dose curve; as a rule, active = well fitted inhibition curve with a large enough effect; inconclusive = small, poorly fitted or top-dose-only effect; inactive = flat fitted curve, though single readings scatter. A potency beside an inconclusive call is a rough fit, not a confirmed value.
Note: nearly all actives have a fitted effect of over 80% in size.
Potency is the fitted concentration of half-maximal effect.
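Throughout, for potency: enzyme at 25 nM with ATP substrate at 10 µM during the reaction.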

These compounds were tested on Chaperonin Mm-Cpn (Methanococcus maripaludis) (assay: Inhibitors of TCP-1 ring complex (TRiC) of Methanococcus maripaludis (MmCpn): qHTS). Conditions: purified Mm-Cpn ATPase, ADP Transcreener TR-FRET.
Outline: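 25 nM Mm-CPN + cpd, 10 min 37°C; + 10 uM ATP, 30 min 37°C; buffer 30 mM Tris pH 7.4, 100 mM KCl, 5 mM MgCl2, 1 mM DTT; Transcreener ADP HTRF detection 30 min RT.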
In the case of `COC(=O)c1c(NC(C)=O)sc(C(=O)Nc2ccccc2F)c1C`, the Potency is reported as inconclusive: 112 µM [inhibitor, partial curve, poor fit]. With `O=C(CCn1nnc2ccccc2c1=O)N[C@@H](Cc1c[nH]c2ccccc12)C(=O)O` the Potency was inconclusive: 79.4 µM [inhibitor, single point]. With `O=C(CSc1nnc(-c2cccs2)n1CC1CCCO1)c1cc2ccccc2o1` (stereo not drawn) the Potency was inconclusive: 79.4 µM [inhibitor, partial curve, poor fit]. With `O=C(NCc1cccs1)NC1CCCCC1` the Potency was inconclusive: 100 µM [inhibitor, single point]. In the case of `CCOC(=O)C1CCN(CC(O)COc2ccc(C(C)(C)CC)cc2)CC1` (stereo not drawn), the Potency is reported as inconclusive: 100 µM [inhibitor, partial curve, poor fit]. `Cc1cc(C)nc(NC(=O)c2cc(-c3ccc(C)s3)nc3ccccc23)c1` was tested, and the Potency was inconclusive: 63.1 µM [inhibitor, single point]. With `S=C(NCc1ccccc1)N/N=C/c1cccs1` the Potency was inconclusive: 22.4 µM [inhibitor, single point]. `O=C(NCCCn1ccnc1)c1cc(C2CC2)on1` was tested, and the Potency was inconclusive: 100 µM [inhibitor, single point]. `CCOC(=O)N1CCC(N2Cc3cccc(C(=O)Nc4ccc(F)cc4)c3C2=O)CC1` was tested, and the Potency was “inactive”. With `CC1CCN(C(=O)CSc2nnc(Cc3cccn3C)n2CCc2ccccc2)CC1` the Potency was inconclusive: 79.4 µM [inhibitor, single point]. `COC(=O)Cn1c(C)nc2ccccc21` was tested, and the Potency was “inactive”. For `O=C(Nc1nc2c(Cl)cccc2s1)c1ccc(Br)o1`, the Potency was inconclusive: 35.5 µM [inhibitor, partial curve, poor fit]. For `CCN(CC)C(=O)COc1ccc(-c2ccccc2)cc1`, the Potency was inconclusive: 100 µM [inhibitor, single point]. With `COC(=O)C1=C(CN2CCSCC2)NC(=O)NC1c1cc(C)ccc1C` (stereo not drawn) the Potency was inconclusive: 2240 µM [inhibitor, partial curve, poor fit]. For `COc1ccc(OCc2nc(N)nc(Nc3ccccc3OC)n2)cc1`, the Potency was inconclusive: 17.8 µM [inhibitor, single point]. In the case of `Cc1nc(SCc2cccnc2)[nH]c(=O)c1C`, the Potency is reported as inconclusive: 22.4 µM [inhibitor, single point]. With `COc1cc(/C=N/NC(=O)c2cccnc2)ccc1OC(=O)c1ccc2c(c1)OCO2` the Potency was inconclusive: 89.1 µM [inhibitor, single point]. In the case of `O=C(NC(=S)N1CCN(c2ccc(F)cc2)CC1)c1cccs1`, the Potency is reported as inconclusive: 79.4 µM [inhibitor, partial curve, poor fit]. With `CCOC(=O)c1[nH]c2ccc(OC)cc2c1NC(=S)N1CCN(c2ccccn2)CC1` the Potency was inconclusive: 200 µM [inhibitor, partial curve, poor fit]. With `CC(=O)Nc1ccc(S(=O)(=O)Nc2nc3ccccc3nc2-n2ccc(=NC(=O)c3ccc(F)cc3)cc2)cc1` the Potency was inconclusive: 79.4 µM [inhibitor, partial curve, poor fit]. In the case of `N#Cc1ccsc1NC(=O)c1ccc(Cl)c([N+](=O)[O-])c1`, the Potency is reported as “inactive”. `CN(C)CCCNC(=O)C1(O)c2cc(Br)ccc2NC(=O)N1c1c(F)cccc1F` (stereo not drawn) was tested, and the Potency was inconclusive: 44.7 µM [inhibitor, single point]. For `O=C(OCC(=O)N1CCN(c2ccccc2)CC1)c1ccc2ncsc2c1`, the Potency was inconclusive: 22.4 µM [inhibitor, single point]. With `O=C(Cn1ncc(Cl)c(Cl)c1=O)N1CCN(S(=O)(=O)c2ccc3ccccc3c2)CC1` the Potency was inconclusive: 79.4 µM [inhibitor, partial curve]. `O=C(NC1CCCCCCC1)c1c(O)c2ccccc2[nH]c1=O` was tested, and the Potency was “inactive”. In the case of `COc1ccc(-c2oc3ccccc3c2C(=O)Oc2ccccc2)cc1`, the Potency is reported as “inactive”. In the case of `CN(C)C(/C=C/Nc1ccc(F)cc1)=C(C#N)C#N`, the Potency is reported as “inactive”. In the case of `CC1(C)C(c2cccs2)=[N+]([O-])C2(CCCCC2=O)N1O` (stereo not drawn), the Potency is reported as inconclusive: 70.8 µM [inhibitor, single point]. `CSc1nc(Oc2cccc(C(F)(F)F)c2)cc(C(F)(F)F)n1` was tested, and the Potency was inconclusive: 89.1 µM [inhibitor, single point]. For `O=C(Nc1cccn(Cc2c(Cl)cccc2Cl)c1=O)c1c(Cl)cccc1Cl`, the Potency was inconclusive: 224 µM [inhibitor, partial curve, poor fit]. `O=C(NCc1ccccc1)Nc1cccn(Cc2ccc(F)cc2)c1=O` was tested, and the Potency was “inactive”. `C=C(C)CSc1nc2sc3c(c2c(=O)n1-c1ccc(C)cc1)CCN(C)C3` was tested, and the Potency was inconclusive: 100 µM [inhibitor, single point]. For `O=[N+]([O-])c1ccc(Oc2cc(NC3CCCCCCC3)c([N+](=O)[O-])cc2[N+](=O)[O-])cc1`, the Potency was “inactive”. In the case of `Cc1ccc(C(=O)CSc2nnc(-c3ccco3)n2C)cc1`, the Potency is reported as inconclusive: 224 µM [inhibitor, partial curve, poor fit]. With `CCOC(=O)c1ccc(NC(=O)CSc2ncccn2)cc1` the Potency was inconclusive: 70.8 µM [inhibitor, single point]. With `CSc1nnc(-c2ccc([N+](=O)[O-])cc2)o1` the Potency was inconclusive: 15.8 µM [inhibitor, single point]. `O=Cc1ccc(OCc2ccccn2)cc1` was tested, and the Potency was “inactive”. For `Nc1ccc(-c2nc3ccc(N)cc3[nH]2)cc1`, the Potency was inconclusive: 251 µM [inhibitor, partial curve, poor fit]. `COCCCNC(=O)c1c(N)n(-c2ccccc2)c2nc3ccccc3nc12` was tested, and the Potency was “inactive”. In the case of `COc1ccc(-n2c(C)nc(=O)c(-c3ccccc3)c2C)cc1`, the Potency is reported as inconclusive: 100 µM [inhibitor, single point]. For `OC(CN1CC=C(/C=C/c2ccc(Br)cc2)CC1)c1ccccc1` (stereo not drawn), the Potency was “inactive”. `C/C(N)=C(/C#N)C(=O)COC(=O)c1ccc(OCC2CCCO2)cc1` (stereo not drawn) was tested, and the Potency was inconclusive: 17.8 µM [inhibitor, single point]. `Cc1ccc(/C(N)=N/OC(=O)c2cccs2)cc1` was tested, and the Potency was “inactive”. `Cc1ccnc(NC(=O)c2cc(S(=O)(=O)N3CCCCC3)ccc2Cl)c1` was tested, and the Potency was inconclusive: 282 µM [inhibitor, partial curve, poor fit]. `O=c1c2cn[nH]c2nc(SCc2cc(=O)n3cc(Br)ccc3n2)n1-c1ccc(Br)cc1` was tested, and the Potency was inconclusive: 158 µM [inhibitor, partial curve, poor fit]. With `C/C=C/C=N/Nc1nc(-c2ccc([N+](=O)[O-])cc2)cs1` the Potency was inconclusive: 39.8 µM [inhibitor, partial curve, poor fit]. `COc1ccc(CN2C(=O)[C@@H]3C(c4ccccc4Cl)=NO[C@@H]3C2=O)cc1` was tested, and the Potency was inconclusive: 22.4 µM [inhibitor, single point]. In the case of `COc1ccc(NC(=O)CCNC(=O)Cn2cnc3ccccc3c2=O)cc1OC`, the Potency is reported as inconclusive: 100 µM [inhibitor, single point]. `COc1ccc(C(=O)NCCc2nc3cc([N+](=O)[O-])ccc3n2C)cc1` was tested, and the Potency was “inactive”. `C/C(=C\C(=O)c1c(O)cc(C)oc1=O)N(C)C` was tested, and the Potency was “inactive”. `COC(=O)c1ccc(-n2c(C)cc(C(=O)CSc3ccc(NC(C)=O)cc3)c2C)cc1` was tested, and the Potency was “inactive”. In the case of `COC(=O)c1cn(C(=O)/C=C/c2ccc(OC)c(OC)c2)c2ccccc12`, the Potency is reported as inconclusive: 89.1 µM [inhibitor, single point]. In the case of `Cc1ccsc1C(=O)N(c1nc2ccccc2s1)c1c(C)cccc1C`, the Potency is reported as inconclusive: 100 µM [inhibitor, single point]. `Nc1nc(-c2ccc(Br)cc2)cs1` was tested, and the Potency was “inactive”. `CC(=O)N1c2ccc3ccccc3c2C2C=CCC2C1c1ccc(Br)cc1` (stereo not drawn) was tested, and the Potency was inconclusive: 100 µM [inhibitor, single point]. For `CC(=O)Nc1nc(C)c(CCCOc2ccc([N+](=O)[O-])cc2)c(=O)[nH]1`, the Potency was inconclusive: 15.8 µM [inhibitor, single point]. In the case of `CC1CCc2c(sc(NC(=O)/C=C/c3cccs3)c2C(=O)O)C1` (stereo not drawn), the Potency is reported as “inactive”. `CC(=O)CC(=O)Nc1ccc2ccccc2c1` was tested, and the Potency was inconclusive: 28.2 µM [inhibitor, single point]. In the case of `COc1ccc2c(C)cc(SCC(=O)c3ccc4c(c3)OCO4)nc2c1`, the Potency is reported as inconclusive: 39.8 µM [inhibitor, partial curve, poor fit]. In the case of `Cc1cccnc1NC(=O)CCc1nnc2ccc(N3CCC4(CC3)OCCO4)nn12`, the Potency is reported as inconclusive: 70.8 µM [inhibitor, single point]. With `COc1ccc(N2CCN(C(=O)c3cccc4nc(C)oc34)CC2)cc1` the Potency was inconclusive: 12.6 µM [inhibitor, single point]. In the case of `Cc1ccc2c(c1)C1(OCCCO1)C(=O)N2`, the Potency is reported as inconclusive: 22.4 µM [inhibitor, single point]. `C=CCOc1cccc(C2C(C(=O)c3ccco3)=C(O)C(=O)N2Cc2ccncc2)c1` (stereo not drawn) was tested, and the Potency was “inactive”. `COc1cccc(-c2csc(N3CCN(C(=S)Nc4cccc(C)c4)CC3)n2)c1` was tested, and the Potency was inconclusive: 100 µM [inhibitor, single point]. In the case of `Cc1ccc(N(CC(=O)NCc2ccc3c(c2)OCO3)S(=O)(=O)c2c(C)noc2C)cc1`, the Potency is reported as inconclusive: 15.8 µM [inhibitor, single point]. With `CCN(CC)c1ccc(NC(=O)Nc2cccc3ccccc23)cc1` the Potency was “inactive”. For `Cc1cc(C)cc(Nc2ccc(C(=O)O)cc2N)c1`, the Potency was inconclusive: 100 µM [inhibitor, partial curve, poor fit]. For `COC(=O)C1C/C(=N/NS(=O)(=O)c2ccc(C)cc2)CS1` (stereo not drawn), the Potency was inconclusive: 15.8 µM [inhibitor, single point].
